PMC10362570
These are yes or no findings as the source states them, for the method shown. In cells and extracts the contact can be indirect.

Amino acid sequences for entries named in this document (tags omitted). A change or cut given only in a name is not applied to a line headed by its entry. Residues count along the entry.
UniProt P98153, residues 22-550: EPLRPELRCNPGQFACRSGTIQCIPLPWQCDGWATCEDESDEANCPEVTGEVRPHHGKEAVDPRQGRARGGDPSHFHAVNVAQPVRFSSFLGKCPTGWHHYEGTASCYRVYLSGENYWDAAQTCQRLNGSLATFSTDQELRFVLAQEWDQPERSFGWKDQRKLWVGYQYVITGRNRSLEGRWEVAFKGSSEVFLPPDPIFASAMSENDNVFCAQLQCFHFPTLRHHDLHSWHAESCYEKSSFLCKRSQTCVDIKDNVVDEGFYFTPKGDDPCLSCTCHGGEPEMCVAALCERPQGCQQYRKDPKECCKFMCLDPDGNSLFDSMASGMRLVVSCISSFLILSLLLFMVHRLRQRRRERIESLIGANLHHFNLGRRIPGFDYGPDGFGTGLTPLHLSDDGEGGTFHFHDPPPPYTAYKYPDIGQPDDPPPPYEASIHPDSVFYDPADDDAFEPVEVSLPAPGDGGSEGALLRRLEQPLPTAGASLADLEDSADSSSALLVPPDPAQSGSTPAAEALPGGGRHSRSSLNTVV
UniProt P15116: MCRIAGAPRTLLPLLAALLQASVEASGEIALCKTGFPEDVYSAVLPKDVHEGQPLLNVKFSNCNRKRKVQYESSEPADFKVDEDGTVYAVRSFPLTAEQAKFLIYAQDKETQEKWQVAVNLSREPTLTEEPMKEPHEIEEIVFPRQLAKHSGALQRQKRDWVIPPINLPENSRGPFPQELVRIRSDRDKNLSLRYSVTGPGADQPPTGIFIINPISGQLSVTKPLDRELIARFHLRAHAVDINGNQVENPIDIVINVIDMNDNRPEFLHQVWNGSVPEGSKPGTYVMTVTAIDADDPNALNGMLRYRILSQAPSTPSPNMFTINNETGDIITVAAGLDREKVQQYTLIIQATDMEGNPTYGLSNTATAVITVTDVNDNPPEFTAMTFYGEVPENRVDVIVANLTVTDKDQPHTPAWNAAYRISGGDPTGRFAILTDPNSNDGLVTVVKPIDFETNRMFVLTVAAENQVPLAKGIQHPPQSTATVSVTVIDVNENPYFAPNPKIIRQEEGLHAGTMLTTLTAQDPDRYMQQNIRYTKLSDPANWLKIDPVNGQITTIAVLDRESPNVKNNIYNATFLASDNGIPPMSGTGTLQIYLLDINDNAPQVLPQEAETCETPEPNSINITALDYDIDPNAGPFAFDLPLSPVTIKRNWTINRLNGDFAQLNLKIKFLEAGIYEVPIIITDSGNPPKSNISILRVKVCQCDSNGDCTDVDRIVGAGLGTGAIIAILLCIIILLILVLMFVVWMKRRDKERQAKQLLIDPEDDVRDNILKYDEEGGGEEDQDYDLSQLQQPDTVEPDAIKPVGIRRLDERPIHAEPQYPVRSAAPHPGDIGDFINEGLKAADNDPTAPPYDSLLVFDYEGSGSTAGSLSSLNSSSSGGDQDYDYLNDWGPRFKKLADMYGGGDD

Molecular target: FLAG-tagged human DGCR2 (FLAG-hDGCR2) (human) (UniProt P98153)
Assay: co-IP; HEK 293T cells co-transfected; lysates (IP buffer: 20 mM Tris pH 7.6, 50 mM NaCl, 1 mM EDTA, 1 mM NaF, 0.5% Nonidet P-40) immunoprecipitated with anti-FLAG antibody at 4 °C; blotted with anti-GFP and anti-FLAG

Substance: N-Cadherin-GFP (from UniProt P15116)
- binding: no binding
